Measurements: PubChem BioAssay AID1347423 (Functional Genomics Laboratory (NCATS/FGL), 2020)
Out of some 52,000 sequences screened, about 210 (0.4%) were called active.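 The calls were made as follows: active = gene whose silencing raises cell survival under the drug, median off-target-corrected z-score across its silencing RNAs 2 or more; inactive = the rest.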 Some of the results follow.

Assay: Resistance to Poly (ADP-Ribose) Polymerase inhibitor: Gene Identification via Genome-wide siRNA Screen
Conditions: mouse BRCA2 R2336H ES cells, olaparib, CellTiter-Glo viability; stronger effect = higher value
Procedure, shortened: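 Genome-wide siRNA screen (3 siRNAs/gene, 20 nM) in mouse ES cells carrying hypomorphic BRCA2 R2336H; olaparib 500 nM added 48 h post-transfection, CellTiter-Glo viability 72 h later. Normalized to plate-median negative control; MAD z-scores, gene median, seed-adjusted.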
With CCAUAAACAAUCACUUGUATT against Ccnf the z-score was inactive: -1.1. With “GGCGGACUUGGAUUACAGCTT against 4632411J06Rik” the z-score was inactive: -0.149. For GGAUUGAAGAGCUUAACAATT against Mta1, the z-score was inactive: -2.06. In the case of GGUUGAAUAGCACUGGGACTT against Slitrk5, the z-score was inactive: -0.448. For GCAAAUGGAUGCGCUAAGCTT against Scgf, the z-score was inactive: 1.83. For CCGAGAUAUGAAUCAAAUUTT against Wars, the z-score was inactive: -2.61. With GGCAUAGGAGGAUUCUCUUTT against Slc15a4 the z-score was inactive: -0.282. With AUUUGGUUGCCUUACAACUTT against Olfr868 the z-score was inactive: -1.15. In the case of “GGCGCAACUCCAGAUACACTT against 4930511H11Rik”, the z-score was inactive: 1.1. With “GCAAAGCUGAUGGACUCAATT against 2410018M08Rik” the z-score was inactive: -0.965. With “GCGUGCUCUUUUUAACUACTT against 9430099J10Rik” the z-score was inactive: 1.86. With “GGUUCUUCGAAGCAAUAGCTT against 4930544G21Rik” the z-score was inactive: 1.13. With GGAGCACAACAUUUUUAUGTT against Atp6v0d2 the z-score was inactive: 0.478. For GCUAUAGGUUAGAUUCAAATT against LOC434228, the z-score was inactive: 2.05. With GGAUCAUUGUCAAAGUUCUTT against BC011426 the z-score was inactive: -0.403. With CCUUGAUUGAGCCUGACUUTT against Hook2 the z-score was inactive: 1.3. In the case of GGUGAUAAAGGCUGGAGUGTT against Wnt9a, the z-score was inactive: -0.764. For GGAAAAAGAUGUCCUAUCUTT against Rufy2, the z-score was inactive: 1.1. For GGGAUCCAAUCAAGAAGUATT against Lmcd1, the z-score was inactive: 0.242. For CCUACUCAUUUGAAUCAAGTT against Itih2, the z-score was inactive: 0.228. In the case of GGGACAGAGAAUGAAGAUGTT against Tnfrsf21, the z-score was inactive: -0.397. In the case of CGUAUUGACAGUGGAAAUCTT against Gpr12, the z-score was inactive: 0.0615. For GCAUGUGGUACAGAUAGCUTT against Kif24, the z-score was inactive: -1.34. With GGAAACAACGGAUCCAAAATT against Plcb3 the z-score was active: 2.47. With GCCUGUUGCUAUGAAUGGUTT against Zfp597 the z-score was inactive: -1.05. In the case of GGUGAAUAACUGCUCUAUCTT against Zp1, the z-score was inactive: 0.717. For CGAAGCCAUAAAUUUCAUATT against Aldh3a2, the z-score was inactive: -0.133. For GGAUCAGGAGCUGUUUGGATT against Tsrc1, the z-score was inactive: -0.168. With “GCAUCCUGAUCACUUAACATT against 4933426L22Rik” the z-score was inactive: -0.544. For GGUUGGAUUAUGCAUAUUUTT against D3Ucla1, the z-score was inactive: -1.22. With GGCUAAAGAAUAAAGAUCCTT against Igsf4d the z-score was inactive: 0.807. In the case of “GGUUUUCUGAAAUUGAGGATT against 2410003P15Rik”, the z-score was inactive: 0.874. With GGCUCUGGAUGAAGAACUUTT against Gfpt2 the z-score was inactive: -1.78. In the case of GCACUGCCAGAGGUUCUGUTT against U90926, the z-score was inactive: 0.946. In the case of CGAAGUGUUACUUUUUCAATT against Skp2, the z-score was inactive: -0.517. In the case of GCUCCAGGGCAUUGUUUCUTT against Try10l, the z-score was inactive: -0.467. With “GGUUUACUGGCCAAGAUGGTT against 4930579K19Rik” the z-score was inactive: -0.719. For GGCUAUGGAAAAAGAUAUGTT against Il21r, the z-score was inactive: -0.0695. With GCAACAUGUGAACAGAUGCTT against Btbd12 the z-score was inactive: 0.263. For GGCUCUUACUCCUGUAUGUTT against Thbd, the z-score was inactive: 0.913. With GCUUACUACUCCGUAAAUGTT against Aldh5a1 the z-score was inactive: -0.723. With GCCUAACAGGGUCAAAUCUTT against Olfr272 the z-score was inactive: -2.44. In the case of GGACUUGGUGGUAUCUUACTT against Sult4a1, the z-score was inactive: 0.97. For CUCCCAAAUACUGAUUAUATT against Trim6, the z-score was inactive: -1.2. With GGAAUCUCAGACCAUCCAGTT against Cpa3 the z-score was inactive: 2.35. For “CCUAAGGAAGAUAAACCGGTT against 4933412E14Rik”, the z-score was inactive: -0.378. In the case of GGGUCAUCCAAACGCACAGTT against Uvrag1, the z-score was inactive: 0.725. For GGUGGAUGAGUUGUUCCUUTT against Adck5, the z-score was inactive: -0.317. In the case of GGAUGAAAAUCUCUGUCCUTT against Anktm1, the z-score was inactive: 0.189. For GGAAGCCACUUCAGAAGCUTT against Olfr412, the z-score was inactive: 0.591. In the case of GCUCAGCUUAGCUGCUUUUTT against Olfr493, the z-score was inactive: -1.12. With “GGAGGAAUUUCUUCUCUAUTT against D630002G06” the z-score was inactive: 0.583. With GGUUUGGAGUGACUUAAUATT against Scrn2 the z-score was inactive: -0.000542. With CCUUGUGAUGUUUAAAGACTT against Abcg1 the z-score was inactive: 0.111. For “GUGCCAGUUGUGACAAUAUTT against 4930481M05”, the z-score was inactive: 1.45. For “GGAAAAAAUGAACAAGACATT against 0610009O20Rik”, the z-score was inactive: 0.468. For GCCAUAUGUCAAGCCUGACTT against Scrn3, the z-score was inactive: -1.14. In the case of GGACUGUGUCCUUCUAUGATT against Oas1f, the z-score was inactive: 0.8. For “GGUUACAGAGCUACAUCGATT against A930017M01Rik”, the z-score was inactive: 0.758. For GGACUCAAUAAGAACCUCGTT against Papss1, the z-score was inactive: 0.267. With GCUAAGGCCUUUAUUCGCUTT against Tlr11 the z-score was inactive: 0.0407. With GGAGAACAAACUGAGGCACTT against Bzrpl1 the z-score was inactive: 0.00433. In the case of CCGUGGUUCUCUCUUAUAUTT against Olfr1106, the z-score was inactive: 0.0862. In the case of GCCGAACUUCGGAAUUCUGTT against Nf1, the z-score was inactive: -0.586. With GGAGAUUUCCCGACUUAACTT against Tnip2 the z-score was inactive: 0.611. With GGUUCAGAAGUUUGUGAUGTT against V1rc16 the z-score was inactive: 0.306.
